Source: PMC4164784, “4E-BPs require non-canonical 4E-binding motifs and a lateral surface of eIF4E to repress translation” (Nature Communications, 2014)
Positions count from the first letter of the chain named. No constants are given. Whether binding was seen depends on the method and setting. For some of these results: Binding seen in cells or lysates may run through a third protein. Some entries that bind do so weakly or less than the wild type. Sequences can lack the tags named with a protein.

What was measured:
[1] = biological target: T1, GFP-CUP (full length) (Drosophila melanogaster) (UniProt Q9VMA3); assay: co-IP + pull-down; S2 cell lysates; tagged 4E-BPs and endogenous eIF4E; pull-downs on m7GTP beads, 1 h at 4 °C, washes in NET buffer (50 mM Tris pH 7.4, 150 mM NaCl, 1 mM EDTA, 0.1% Triton X-100); western blot
T1 sequence: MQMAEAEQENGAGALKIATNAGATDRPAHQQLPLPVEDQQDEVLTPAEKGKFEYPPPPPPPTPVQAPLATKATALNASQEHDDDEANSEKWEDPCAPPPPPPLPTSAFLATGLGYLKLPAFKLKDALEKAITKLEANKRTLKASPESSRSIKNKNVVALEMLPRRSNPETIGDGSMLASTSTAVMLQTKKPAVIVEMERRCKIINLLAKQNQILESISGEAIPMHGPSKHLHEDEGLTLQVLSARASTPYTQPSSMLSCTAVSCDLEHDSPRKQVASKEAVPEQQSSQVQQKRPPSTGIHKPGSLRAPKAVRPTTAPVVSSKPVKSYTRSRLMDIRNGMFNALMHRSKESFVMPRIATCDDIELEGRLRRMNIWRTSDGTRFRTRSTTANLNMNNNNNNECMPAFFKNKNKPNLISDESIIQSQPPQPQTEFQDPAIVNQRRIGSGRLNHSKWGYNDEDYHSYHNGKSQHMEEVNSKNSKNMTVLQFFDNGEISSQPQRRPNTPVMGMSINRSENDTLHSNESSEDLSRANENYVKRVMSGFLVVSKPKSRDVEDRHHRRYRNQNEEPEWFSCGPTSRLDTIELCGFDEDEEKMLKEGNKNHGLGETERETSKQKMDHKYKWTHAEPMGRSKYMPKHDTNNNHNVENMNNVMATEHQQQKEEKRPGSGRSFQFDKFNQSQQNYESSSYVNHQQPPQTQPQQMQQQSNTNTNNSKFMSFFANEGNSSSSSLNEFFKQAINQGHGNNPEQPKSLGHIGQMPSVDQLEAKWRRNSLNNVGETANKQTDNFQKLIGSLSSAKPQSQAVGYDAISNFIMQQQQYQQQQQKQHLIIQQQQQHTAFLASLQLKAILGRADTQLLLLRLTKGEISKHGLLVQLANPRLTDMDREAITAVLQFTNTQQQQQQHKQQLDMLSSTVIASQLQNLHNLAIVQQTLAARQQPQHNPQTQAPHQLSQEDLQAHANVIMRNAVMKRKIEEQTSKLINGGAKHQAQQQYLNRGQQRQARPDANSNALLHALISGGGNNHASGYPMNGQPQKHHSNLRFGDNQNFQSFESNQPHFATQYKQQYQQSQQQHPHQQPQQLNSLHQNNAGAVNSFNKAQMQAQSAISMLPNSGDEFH

[2] = biological target: T2, HA-Thor (full length, WT) (Drosophila melanogaster) (UniProt Q9XZ56); assay: as above
T2 sequence: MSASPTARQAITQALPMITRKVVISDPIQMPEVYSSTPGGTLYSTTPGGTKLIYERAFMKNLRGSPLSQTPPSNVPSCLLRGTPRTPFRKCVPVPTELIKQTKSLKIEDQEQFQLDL

[3] = biological target: T3, GFP-4E-T (full length, WT) (Drosophila melanogaster) (UniProt Q8IH18); assay: as above
T3 sequence: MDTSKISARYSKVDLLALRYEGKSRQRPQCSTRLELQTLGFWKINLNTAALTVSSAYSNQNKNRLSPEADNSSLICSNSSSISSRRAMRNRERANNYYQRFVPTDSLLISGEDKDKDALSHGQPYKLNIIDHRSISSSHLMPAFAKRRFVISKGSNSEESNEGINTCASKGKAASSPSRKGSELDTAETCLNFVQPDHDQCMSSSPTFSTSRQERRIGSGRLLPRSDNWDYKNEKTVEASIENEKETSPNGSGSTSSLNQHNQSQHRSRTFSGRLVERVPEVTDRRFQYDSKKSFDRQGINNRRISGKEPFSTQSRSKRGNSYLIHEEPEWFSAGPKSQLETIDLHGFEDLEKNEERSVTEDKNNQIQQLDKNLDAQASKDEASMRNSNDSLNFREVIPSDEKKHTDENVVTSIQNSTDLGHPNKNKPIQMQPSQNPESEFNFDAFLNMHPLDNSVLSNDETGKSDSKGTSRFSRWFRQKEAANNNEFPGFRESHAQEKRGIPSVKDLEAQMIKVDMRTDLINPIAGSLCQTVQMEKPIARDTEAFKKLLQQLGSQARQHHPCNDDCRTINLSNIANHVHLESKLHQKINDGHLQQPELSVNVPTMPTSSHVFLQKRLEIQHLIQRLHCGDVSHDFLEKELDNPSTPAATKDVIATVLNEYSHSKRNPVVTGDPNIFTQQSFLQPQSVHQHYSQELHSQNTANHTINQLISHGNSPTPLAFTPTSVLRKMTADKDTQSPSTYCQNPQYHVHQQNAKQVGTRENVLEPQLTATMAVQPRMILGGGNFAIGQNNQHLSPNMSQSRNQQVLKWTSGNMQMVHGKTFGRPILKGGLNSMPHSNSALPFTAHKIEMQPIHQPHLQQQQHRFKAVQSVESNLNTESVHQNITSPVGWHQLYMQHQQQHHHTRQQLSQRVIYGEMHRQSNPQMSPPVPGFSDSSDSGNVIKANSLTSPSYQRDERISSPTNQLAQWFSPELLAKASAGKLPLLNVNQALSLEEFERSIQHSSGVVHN

[4] = biological target: T4, HA-Thor (full length, ΔNC) (Drosophila melanogaster) (UniProt Q9XZ56); assay: co-IP; S2 cell lysates; HA-Thor precipitated with anti-HA or GFP-4E-T with anti-GFP antibodies; endogenous eIF4E detected by western blot
T4 sequence: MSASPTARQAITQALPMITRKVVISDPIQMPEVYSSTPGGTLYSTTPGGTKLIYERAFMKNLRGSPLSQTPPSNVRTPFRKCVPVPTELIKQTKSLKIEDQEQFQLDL

[5] = biological target: T5, HA-Thor (full length, NC*) (Drosophila melanogaster) (UniProt Q9XZ56); assay: as above
T5 sequence: T2 sequence with C78A, L79A, L80A

[6] = biological target: T2, HA-Thor (full length, WT) (Drosophila melanogaster); assay: as above
[7] = biological target: T6, HA-Thor (full length, Arg81, Gly82 and Thr83 to alanine) (Drosophila melanogaster) (UniProt Q9XZ56); assay: as above
T6 sequence: T2 sequence with R81A, G82A, T83A

[8] = biological target: T3, GFP-4E-T (full length, WT) (Drosophila melanogaster); assay: as above
[9] = biological target: T7, GST-CUP-GB1 (residues 311–440, WT) (Drosophila melanogaster) (UniProt Q9VMA3); assay: pull-down; eIF4E coexpressed with the GST- or MBP-tagged bait in E. coli; cleared lysates on glutathione agarose or amylose resin, 1 h; 20 mM Tris–HCl pH 7.5, 100 mM NaCl, 1 mM DTT; Coomassie
T7 sequence: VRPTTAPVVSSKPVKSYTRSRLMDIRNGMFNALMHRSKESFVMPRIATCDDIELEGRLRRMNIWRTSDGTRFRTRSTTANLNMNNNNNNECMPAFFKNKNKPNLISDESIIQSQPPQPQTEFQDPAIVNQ

[10] = biological target: T8, MBP-eIF4G (residues 578–650, WT) (Drosophila melanogaster) (UniProt O61380); assay: as above
T8 sequence: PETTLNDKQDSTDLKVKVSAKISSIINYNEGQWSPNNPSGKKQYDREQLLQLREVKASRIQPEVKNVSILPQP

[11] = biological target: T9, MBP-Thor (full length, WT) (Drosophila melanogaster) (UniProt Q9XZ56); assay: as above
T9 sequence: T2 sequence

[12] = biological target: T10, MBP-Thor (full length, NC*) (Drosophila melanogaster) (UniProt Q9XZ56); assay: as above
T10 sequence: T2 sequence with C78A, L79A, L80A

[13] = biological target: T11, MBP-Thor (full length, ΔNC) (Drosophila melanogaster) (UniProt Q9XZ56); assay: as above
T11 sequence: T4 sequence

[14] = biological target: T12, SHN-eIF4E (full length, WT) (Drosophila melanogaster) (UniProt P48598); assay: pull-down; competition titration: 2 μM purified SHN-eIF4E–GST-eIF4G complexes (coexpressed, co-purified) with 2–20 μM purified competitor, 20 min at 4 °C; eIF4E pulled down on Strep-Tactin Sepharose; both purified
T12 sequence: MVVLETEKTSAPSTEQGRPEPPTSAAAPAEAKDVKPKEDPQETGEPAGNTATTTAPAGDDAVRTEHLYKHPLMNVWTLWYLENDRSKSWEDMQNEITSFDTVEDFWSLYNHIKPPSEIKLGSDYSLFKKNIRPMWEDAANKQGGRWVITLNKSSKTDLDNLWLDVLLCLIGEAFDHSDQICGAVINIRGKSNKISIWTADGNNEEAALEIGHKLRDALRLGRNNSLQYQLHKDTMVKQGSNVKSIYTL

[15] = biological target: T13, MBP-tagged eIF4E (Drosophila melanogaster) (UniProt P48598); assay: pull-down; preassembled MBP-eIF4E–GST-eIF4G complex (coexpressed, purified on glutathione agarose) recovered on m7GTP-sepharose beads; both purified
T13 sequence: T12 sequence

[16] = biological target: T13, MBP-tagged eIF4E (Drosophila melanogaster); assay: pull-down; competition: purified MBP-eIF4E–GST-eIF4G complex mixed with bacterial lysates with fivefold molar excess of MBP-CUP-GB1 peptides, 30 min at 4 °C; eIF4E recovered on m7GTP-sepharose beads; only the target purified

B1: endogenous eIF4E (S2 cells) (protein, UniProt P48598 1-259)
chain: MQSDFHRMKNFANPKSMFKTSAPSTEQGRPEPPTSAAAPAEAKDVKPKEDPQETGEPAGNTATTTAPAGDDAVRTEHLYKHPLMNVWTLWYLENDRSKSWEDMQNEITSFDTVEDFWSLYNHIKPPSEIKLGSDYSLFKKNIRPMWEDAANKQGGRWVITLNKSSKTDLDNLWLDVLLCLIGEAFDHSDQICGAVINIRGKSNKISIWTADGNNEEAALEIGHKLRDALRLGRNNSLQYQLHKDTMVKQGSNVKSIYTL
binding [1]: binds
binding [2]: binds
binding [3]: binds
binding [4]: no binding
binding [5]: binds
binding [6]: binds
binding [7]: binds
binding [8]: binds

B2: His6-eIF4E (full length, WT) (protein, UniProt P48598-2 1-248)
chain: T12 sequence
binding [9]: binds
binding [10]: binds
binding [11]: binds
binding [12]: binds
binding [13]: binds

B3: CUP C+NC peptide fused C-terminally to GB1 (domain or fragment, UniProt Q9VMA3 296-425)
chain: STGIHKPGSLRAPKAVRPTTAPVVSSKPVKSYTRSRLMDIRNGMFNALMHRSKESFVMPRIATCDDIELEGRLRRMNIWRTSDGTRFRTRSTTANLNMNNNNNNECMPAFFKNKNKPNLISDESIIQSQP
binding [14]: binds

B4: GST-eIF4G (residues 578–650) (domain or fragment, UniProt O61380 578-650)
chain: T8 sequence
binding [15]: binds

B5: MBP-CUP C+NC-GB1 (domain or fragment, UniProt Q9VMA3 296-425)
chain: B3 chain
binding [16]: binds
